Source: PubChem BioAssay AID493246 (Drosophila RNAi Screening Center, 2011)

- Aim: 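Identify essential fly genes by loss of cell viability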 (primary screen)
- Cell system: Drosophila Kc and S2R+ cells
- Knock-down reagent: long dsRNA against Drosophila genes
- Measurement: 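Raw, unnormalised count of remaining cells in each well; per-plate z-scores of cell number underlie the calls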
- Reading the numbers: Kc cell number and S2R+ cell number: higher = more cells remaining
- Call rule: 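Active when the per-plate z-score of cell number is 3 or more in the direction of fewer cells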
The deposit covers about 21,000 reagents; this is an unselected part of those that have a named target and a result. In the full data, 429 (2%) are marked active. 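Values are raw and not normalised between plates; calls rest on per-plate z-scores that were not deposited.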 Reagent sequences are not shown. The record does not give: the amount of reagent, the time to read-out.

CG11638 (GeneID 31050) [DRSC18167]: Kc cell number, rep 1 = 1.53e6; Kc cell number, rep 2 = 1.52e6; S2R+ cell number, rep 1 = 1.05e6; S2R+ cell number, rep 2 = 1.22e6; call = inactive
CG11638 (GeneID 31050) [DRSC18640]: Kc cell number, rep 1 = 1.46e6; Kc cell number, rep 2 = 1.44e6; S2R+ cell number, rep 1 = 1.06e6; S2R+ cell number, rep 2 = 1.18e6; call = inactive
TrpRS-m (GeneID 39989) [DRSC10848]: Kc cell number, rep 1 = 1.38e6; Kc cell number, rep 2 = 1.42e6; S2R+ cell number, rep 1 = 1.21e6; S2R+ cell number, rep 2 = 1.23e6; call = inactive
CG6908 (GeneID 41410) [DRSC16131]: Kc cell number, rep 1 = 1.53e6; Kc cell number, rep 2 = 1.50e6; S2R+ cell number, rep 1 = 1.15e6; S2R+ cell number, rep 2 = 1.20e6; call = inactive
VhaPPA1-1 (GeneID 45247) [DRSC16170]: Kc cell number, rep 1 = 1.38e6; Kc cell number, rep 2 = 1.45e6; S2R+ cell number, rep 1 = 1.23e6; S2R+ cell number, rep 2 = 1.27e6; call = inactive
dUTPase (GeneID 34529) [DRSC01998]: Kc cell number, rep 1 = 1.46e6; Kc cell number, rep 2 = 1.47e6; S2R+ cell number, rep 1 = 1.08e6; S2R+ cell number, rep 2 = 1.11e6; call = inactive

2 successive reagents already listed:
TrpRS-m (GeneID 39989) [DRSC10848]: Kc cell number, rep 1 = 1.38e6; Kc cell number, rep 2 = 1.42e6; S2R+ cell number, rep 1 = 1.21e6; S2R+ cell number, rep 2 = 1.23e6; call = inactive
CG6908 (GeneID 41410) [DRSC16131]: Kc cell number, rep 1 = 1.53e6; Kc cell number, rep 2 = 1.50e6; S2R+ cell number, rep 1 = 1.15e6; S2R+ cell number, rep 2 = 1.20e6; call = inactive

Continued.
TotZ (GeneID 117459) [DRSC13450]: Kc cell number, rep 1 = 1.38e6; Kc cell number, rep 2 = 1.36e6; S2R+ cell number, rep 1 = 9.88e5; S2R+ cell number, rep 2 = 1.03e6; call = inactive
Zw10 (GeneID 47874) [DRSC18793]: Kc cell number, rep 1 = 5.06e5; S2R+ cell number, rep 1 = 7.47e5; call = inactive
ppk31 (GeneID 318575) [DRSC13811]: Kc cell number, rep 1 = 1.14e6; Kc cell number, rep 2 = 1.41e6; S2R+ cell number, rep 1 = 1.00e6; S2R+ cell number, rep 2 = 1.04e6; call = inactive
CG9861 (GeneID 37692) [DRSC04576]: Kc cell number, rep 1 = 1.45e6; Kc cell number, rep 2 = 1.55e6; S2R+ cell number, rep 1 = 1.17e6; S2R+ cell number, rep 2 = 1.16e6; call = inactive
CG18132 (GeneID 33333) [DRSC00518]: Kc cell number, rep 1 = 1.62e6; Kc cell number, rep 2 = 1.70e6; S2R+ cell number, rep 1 = 1.09e6; S2R+ cell number, rep 2 = 1.18e6; call = inactive
CG4325 (GeneID 31167) [DRSC18516]: Kc cell number, rep 1 = 9.00e5; Kc cell number, rep 2 = 1.07e6; S2R+ cell number, rep 1 = 6.46e5; S2R+ cell number, rep 2 = 7.42e5; call = active
PIG-Wb (GeneID 38220) [DRSC08526]: Kc cell number, rep 1 = 1.42e6; Kc cell number, rep 2 = 1.32e6; S2R+ cell number, rep 1 = 1.05e6; S2R+ cell number, rep 2 = 1.30e6; call = inactive
CG17177 (GeneID 39601) [DRSC10257]: Kc cell number, rep 1 = 1.62e6; Kc cell number, rep 2 = 1.76e6; S2R+ cell number, rep 1 = 1.25e6; S2R+ cell number, rep 2 = 1.38e6; call = inactive
